Consider two molecules from US20250333486A1, “Anti-HSP90 alpha antibody and uses thereof” (NATIONAL HEALTH RESEARCH INSTITUTES, priority 2021, published 2025).

This data set concerns HSP90α. The data set can be described thus: Epitope determination by ELISA (domain, peptide and alanine scanning). Format: binding, human. Particulars: for epitope sites of HSP90α (peptide scanning): 10-a.a. peptides of a.a. 21-272, ELISA; for a.a. residues critical for binding (alanine scanning): alanine-substituted 10-a.a. peptides, ELISA. The text has this:
The full-length HSP90α (a.a. 1-732) and its 3 truncated fragments including the N-terminal plus Linker domains (a.a. 1-272), N terminus through Middle domain (a.a. 1-629), and C-terminal domain (a.a. 630-732) were cloned, expressed, and purified. Briefly, each cDNA sequence with a 8×His-tag was amplified by PCR from the human ORF Clone (NM_005348) with the primers containing Xho I and BamH I sites. The PCR products were purified, digested with restriction enzymes, and then inserted into pET-23a plasmid (Sigma-Aldrich). The recombinant plasmids were then transformed into Escherichia coli ClearColi® competent cells (Lucigen Co., Middleton, WI, USA), and expressions of the recombinant constructs were stimulated by the addition of isopropyl-D-thiogalacto-pyranoside. The expressed histidine-tagged full-length and truncated HSP90α were further purified by using the Ni—NTA column (Qiagen, Germantown, MD, USA) according to the manufacturer's instructions. The purified proteins were finally dialyzed against the storage buffer consisting of 25 mM Tris-HCl (pH, 7.0), 50 mM NaCl, 0.1% Triton X-100, 50% glycerol, 1 mM EDTA, and 1 mM DTT, and protein concentrations were determined by the Bradford protein assay (Bio-Rad Laboratories, Hercules, USA).
At first, the domain scanning strategy was used to roughly delineate the HSP90α region responsible for the binding with our prepared antibodies. The above-mentioned full-length HSP90α and its 3 truncated fragments were employed to coat 96-well ELISA plates for assaying the binding activities of the tested mouse monoclonal antibodies. […] 1-272 region of HSP90α. Therefore, in peptide scanning strategy, a 132 peptide library was synthesized by Mimotopes Pty. Ltd. (Melbourne, Victoria, Australia), consisting of a series of 10-a.a. peptides offset by 2 a.a. to span the sequence of the a.a. 21-272 region of HSP90α. This series of peptides were used to coat 96-well ELISA plates for assaying the binding activities of the tested antibodies. […] These peptides were subjected to ELISA as described above.

B1: Clone-2-chimera: recombinant IgG1 antibody: Clone-2 VH and VL with human IgG constant domains (antibody, V domains shown)
VH: EVQVVESGGGLVQPKGSLKLSCAASGFTFKTYAMNWVRQAPGKGLEWVARIRSKSRNYATYYADSVKDRFTISRDDSQFMFYLQMNNLKTEDTAMYYCVVGGSGFDYWGQGTTLTVSS
VL: DVLMTQTPLSLPVSLGDQASISCRSSQSIVHSNGNTYLEWYLQKPGQSPKLLIYKVSNRFSGVPDRFSGSGSGTDFTLSISRVEAGDLGVYYCFQGSHVPWTFGGGTKLEIK
Take B1: the “epitope sites of HSP90α (peptide scanning)” value was 235[…]244 and 251[…]260; the “a.a. residues critical for binding (alanine scanning)” value is “decreased drastically when E237, E239, K241, E253, and K255 were replaced with alanine”.

B2: HH01: humanized anti-HSP90α IgG1 antibody, mutant of Clone-2-chimera; VH SEQ ID NO: 12, VL SEQ ID NO: 17 (antibody, V domains shown)
VH: EVQLVESGGGLVQPGGSLRLSCAASGFTFKTYAMNWVRQAPGQGLEWVARIRSKSRNYATYYADSVKDRFTISRDDSKNQFYLQMNNLRTEDTAVYYCVVGGSGFDYWGQGTTLTVSS
VL: DVVMTQTPLSLPVSLGDQASISCRSSQSIVHSNGNTYLEWYLQKPGQSPQLLIYKVSNRFSGVPDRFSGSGSGTDFTLTISSVEAEDLGVYYCFQGSHVPWTFGGGTKLEIK
modifications: Heavy chain variable region; Light chain variable region
Consider B2, for which the “epitope sites of HSP90α (peptide scanning)” value is reported as “these two sites could also serve as the binding epitopes” and the “a.a. residues critical for binding (alanine scanning)” value is given as “one more D240 was also responsible for the binding”.
